EC50 data for 94 molecules are collected here from PubChem BioAssay AID434947 (Broad Institute, 2010).

The whole screen tested about 2,200 compounds, of which about 15 (0.7%) were called active.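 How the source made its calls: active means fitted half-maximal concentration for loss of luminescence signal no more than a set limit of log units above the top tested concentration; inconclusive means flat fit with 30 to 70% signal loss, or invalid fit; inactive means half-maximal concentration above that set limit.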 Some of the results follow.

The assay in a line: inhibitors of ADP-Glo detection reagents, dose response, artefact control for GSK3beta inhibitor project, biochemical, luminescence, cell-free, homogeneous (AID 434947).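 Further: kinase-free counter screen of ADP-Glo detection reagents for GSK3beta hits.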 To be noted: 5 uM ADP. On the technique in general: In ADP-Glo the light output rises with the ADP produced.
Broadly, the EC50 is the concentration needed to bring the measured effect to its halfway point. For `O=C(CN1CCN(S(=O)(=O)c2ccccc2)CC1)Nc1ccc([N+](=O)[O-])cc1`, the EC50 was inactive: > 30 µM. As for `O=[N+]([O-])c1cc([N+](=O)[O-])c(N2CCCCCC2)cc1NCCO`, the EC50 is inactive: > 30 µM. Take `CN(CC(=O)OCC(=O)Nc1ccccc1)S(=O)(=O)c1ccc(Cl)cc1`: the EC50 is inactive: > 30 µM. The value for `NC(=O)COC(=O)c1ccc(-c2ccc(O)cc2)cc1` was inactive: > 30 µM. The value for `COc1ccc(/C=C2/Sc3ccc(C(=O)NCCCN4CCOCC4)cc3NC2=O)cc1OC` was inactive: > 30 µM. The value for `Cc1cccc(Nc2nc(N)c([N+](=O)[O-])c(NCCO)n2)c1` was inactive: > 30 µM. Consider `Cc1nn(CC(=O)NCCCN2CCCCC2)c(=O)c2cccn12`, for which the EC50 was inactive: > 30 µM. The value for `COC(CNC(=O)CCc1c(C)nc2c(c(C)nn2-c2ccc(C)cc2)c1C)OC` was inactive: > 30 µM; that for `O=c1cc(-c2ccccc2Cl)oc2c([N+](=O)[O-])c(O)cc(O)c12` was inactive: > 30 µM. As for `Cn1c(SCC(=O)NC2CCCCC2)nnc1-c1ccccn1`, the figure is inactive: > 30 µM; as for `c1ccc2c(CSc3nnc(-c4ccncc4)o3)cccc2c1`, inactive: > 30 µM; as for `COc1cccc2cc(CC(=O)c3cc(C)ccc3C)c(=O)oc12`, inactive: > 30 µM.

Take `COc1cc2c(cc1OC)C(C)N(C(=O)c1ccc(Br)o1)CC2` (centres undefined): the EC50 was inactive: > 30 µM. As for `CCC(=O)Nc1sc2c(c1C(N)=O)CCN(C(C)=O)C2`, the figure is inactive: > 30 µM. The value for `O=C(Nc1ccncc1)c1ccccc1-c1ccccc1` was inactive: > 30 µM; that for `Cc1ccc(C(=O)O/N=C(\N)c2ccccn2)c(Cl)c1` was active: 26.6 µM; that for `Cc1ccc(/C=N\NC(=O)c2cncc(Br)c2)o1` was inactive: > 30 µM. As to `COc1cccc(/C=C2\Sc3ccc(C(=O)NCC4CCCO4)cc3N(C)C2=O)c1` (centres undefined), the EC50 is inactive: > 30 µM. The value for `O=C(CCc1ccccc1)Nc1cccc([N+](=O)[O-])c1` was inactive: > 30 µM; that for `O=C(Nc1ccc2c(c1)OCO2)Nc1ccc(F)cc1F` was inactive: > 30 µM; that for `CCOC(=O)c1nnn(-c2nonc2N)c1CN(CC)CC` was inactive: > 30 µM. As for `N#Cc1cccc(-c2nnc(SCc3ccccc3C#N)o2)c1`, the figure is inactive: > 30 µM. The value for `COc1ccc(-c2nn(-c3ccccc3)cc2/C=N/NC(N)=S)cc1OC` was inactive: > 30 µM.

For `O=[N+]([O-])c1ccccc1S(=O)(=O)Nc1ccc(S(=O)(=O)Nc2nccs2)cc1`, the EC50 was inactive: > 30 µM.

Regarding `COc1ccc(-c2csc(N3CCOCC3)n2)cc1OC`, the EC50 was inactive: > 30 µM. The value for `CCOC(=O)CSc1ccc2nnc(-c3cccnc3)n2n1` was inactive: > 30 µM. As for `COc1ccc(/C=C2\Sc3ccc(C(=O)NCCN4CCCCCC4)cc3N(C)C2=O)cc1`, the figure is inactive: > 30 µM; as for `COc1ccc(C(=O)c2sc(Nc3ccc(NC(C)=O)cc3)nc2C)cc1`, inactive: > 30 µM; as for `COC(=O)C1=CN(Cc2ccc(OC)c(OC)c2)C=C(C(=O)OC)C1c1ccccc1F`, inactive: > 30 µM.

With `CC1=C(C(=O)OCC2CCCO2)C(c2ccsc2)C2=C(CC(C)(C)CC2=O)N1` (centres undefined), the EC50 was inactive: > 30 µM.

Consider `O=C(CN1C(=O)CCC1=O)Nc1ccc(Cc2ccc(NC(=O)CN3C(=O)CCC3=O)cc2)cc1`, for which the EC50 was inactive: > 30 µM. As for `COc1ccc(-c2nc(-c3ccccc3)nc(Cl)c2C#N)cc1`, the figure is inactive: > 30 µM. As for `O=C1NCCCc2c1oc1ccc(O)cc21`, the figure is inactive: > 30 µM; as for `CCc1nc(SCC(=O)Nc2ccc(Br)cn2)n[nH]1`, inactive: > 30 µM; as for `O=C(Nc1ccc(Cl)cc1)Nc1ccccn1`, inactive: > 30 µM. On to `Nc1nonc1-n1nnc(C(=O)N/N=C/c2ccc(O)cc2)c1CN1CCCCCC1`, for which the EC50 is inactive: > 30 µM.

For `O=C(COc1ccc2ccccc2c1)Nc1cccc2c1C(=O)NC2=O`, the EC50 is inactive: > 30 µM. As for `COCCNc1nc(N)c([N+](=O)[O-])c(NCCO)n1`, the figure is inactive: > 30 µM. The value for `Cc1ccccc1CSc1nc2n(n1)C(c1cccs1)C1=C(CCCC1=O)N2` (centres undefined) was inactive: > 30 µM; that for `CSc1nc(SCC(N)=O)c2c3c(sc2n1)CN(C)CC3` was inactive: > 30 µM; that for `O=C(CN(Cc1ccccc1)C(=O)CCC(=O)Nc1ccccn1)NCc1ccc(F)cc1` was inactive: > 30 µM. As for `CCCN(CCC)Cc1c(C(=O)N/N=C/c2ccco2)nnn1-c1nonc1N`, the figure is inactive: > 30 µM; as for `CCOC(=O)c1nnn(-c2nonc2N)c1CSc1nnc(N)s1`, inactive: > 30 µM; as for `CC1(C)CC(CC(=O)NC(=S)Nc2ccc([N+](=O)[O-])cc2)C(=O)O1` (centres undefined), inactive: > 30 µM.

Take `CN(C)Cc1c(O)ccc2c(-c3ccccc3)cc(=O)oc12`: the EC50 was inactive: > 30 µM. As for `Cc1ccc2nc3c(cc2c1)c(NC(=O)C1CCCO1)nn3CC(C)C` (centres undefined), the figure is inactive: > 30 µM. Regarding `Cc1ccc(S(=O)(=O)CC(=O)c2cc3cccc(C)c3oc2=O)cc1`, the EC50 was inactive: > 30 µM.

For the molecule `COc1cccc2cc(C(=O)OCc3ccccc3)c(=O)oc12`, the EC50 was inactive: > 30 µM. The value for `O=C(CN1C(=O)c2ccccc2C1=O)Nc1ccccc1F` was inactive: > 30 µM; that for `CC1(C)CC(=O)C=C(Nc2ccc(Br)cn2)C1` was inactive: > 30 µM; that for `COc1cc(/C=C(\C#N)C(=O)c2c[nH]c3ccccc23)cc(OC)c1O` was inactive: > 30 µM.

On to `Cc1ccc(-n2c(C)nc3c(cnn3-c3ccc(F)cc3)c2=O)cc1C`, for which the EC50 was inactive: > 30 µM.

On to `CCN(CC)CCNC(=O)C(=O)Nc1ccc2c(c1)N(S(=O)(=O)c1cccs1)CCC2`, for which the EC50 was inactive: > 30 µM.

On to `CCCCc1cc(=O)oc2cc(C)cc(OCC(=O)O)c12`, for which the EC50 was inactive: > 30 µM. Take `Nc1ccc(O)c2c(=O)cc(-c3ccccc3Cl)oc12`: the EC50 is inactive: > 30 µM. As for `CCCOc1cc(C)nc(-c2ccccc2O)n1`, the figure is inactive: > 30 µM. As for `CCc1cc(=O)oc2cc(OC(C)=O)cc(OC(C)=O)c12`, the figure is inactive: > 30 µM. As for `Cc1ccc(-c2cc(C(=O)NCCc3ccccn3)c3ccccc3n2)c(C)c1`, the figure is inactive: > 30 µM; as for `CCOC(=O)c1cnc2ccc(C(=O)OC)cc2c1Nc1ccc2c(c1)OCCO2`, inactive: > 30 µM. With `O=C(c1ccc(Cl)cc1)c1coc2ccc(O)cc12`, the EC50 was inactive: > 30 µM. As for `CCOC(=O)C1=C(C)Nc2ncnn2C1c1cccnc1` (centres undefined), the figure is inactive: > 30 µM. Take `COc1ccc(Nc2nc(-c3ccncc3)nc3ccccc23)cc1`: the EC50 is inactive: > 30 µM.

As to `O/N=C/c1cn(-c2ccccc2)nc1-c1ccccc1`, the EC50 was inactive: > 30 µM. The value for `CCOC(=O)C1=C(C(F)(F)F)Nc2ncnn2C1c1cc(OC)ccc1OC` (centres undefined) was inactive: > 30 µM; that for `CNC(=O)NC(=O)CSc1nc2ccccc2n1CCOC` was inactive: > 30 µM.

Take `COc1ccc2oc3cc(C)[n+]([O-])c(-c4ccc(Cl)cc4)c3c2c1`: the EC50 is inactive: > 30 µM.

For `Cc1ccc(-c2nn(-c3ccccc3)cc2CNCc2ccccc2)cc1`, the EC50 is inactive: > 30 µM. With `CN(C)CCc1cc2c(c3c1ccc1ccccc13)OCO2`, the EC50 was inactive: > 30 µM. The value for `Cc1ccc(/C=N\NC(=O)COc2ccc(C)cc2[N+](=O)[O-])cc1` was inactive: > 30 µM; that for `CCC1(C)NC(=O)N(CC(=O)Nc2sc3c(c2C(N)=O)CCC3)C1=O` (centres undefined) was inactive: > 30 µM.

As for `Cc1csc2c(=O)n(CCO)c(=O)[nH]c12`, the EC50 was inactive: > 30 µM. Consider `C=CCNC(=S)N/N=C/c1cn(-c2ccccc2)nc1-c1ccc(OC)cc1`, for which the EC50 is inactive: > 30 µM.

As for `C=CCNc1nc(N)c([N+](=O)[O-])c(NC2CCCCC2)n1`, the EC50 is inactive: > 35 µM.

In the case of `Nn1c(SCc2cccc(Br)c2)nnc1-c1ccncc1`, the EC50 is inactive: > 30 µM.

In the case of `CCCNC(=O)c1ccc(Cl)cc1Cl`, the EC50 is inactive: > 30 µM. Regarding `COc1ccc(CN(CC(=O)NCc2ccco2)C(=O)CCC(=O)Nc2ccccn2)cc1`, the EC50 is inactive: > 30 µM. As for `Cn1nc(-c2ccccn2)nc2c(=O)n(C)c(=O)nc1-2`, the figure is inactive: > 30 µM; as for `COc1ccc(C(=O)c2sc(Nc3ccccc3)nc2C)cc1`, inactive: > 30 µM.

Regarding `O=C(Nc1ccnn1C1CCN(Cc2cccc(OCCO)c2)CC1)C1CCCC1`, the EC50 was inactive: > 30 µM.

Consider `N#Cc1c(-c2cccs2)cc(-c2cccnc2)nc1N`, for which the EC50 was inactive: > 30 µM. The value for `Fc1ccc(CSc2nnc(-c3ccco3)o2)cc1` was inactive: > 30 µM. As for `COc1ccc(NC(=O)c2ccc(-c3ccc(OC)cc3)s2)cc1`, the figure is inactive: > 30 µM. The value for `Cc1ccc(C)c(S(=O)(=O)NCc2ccc(C(=O)N3CC(C)OC(C)C3)cc2)c1` (centres undefined) was inactive: > 30 µM; that for `c1ccc(Nc2ncnc3[nH]ncc23)cc1` was inactive: > 30 µM; that for `CCN1CCN(CCNC(=O)c2ccc3c(c2)NC(=O)/C(=C\c2ccc(OC)c(OC)c2)S3)CC1` was inactive: > 30 µM. On to `COc1ccc(CNC(=O)CN(Cc2ccc(OC)cc2)C(=O)CCC(=O)Nc2ccccn2)cc1`, for which the EC50 is inactive: > 30 µM. Consider `O=C(Nc1ccccn1)Nc1cccs1`, for which the EC50 was inactive: > 30 µM.

Consider `CCN(CC)Cc1c(O)ccc2c(=O)c(-c3ccc4c(c3)OCCO4)coc12`, for which the EC50 is inactive: > 10 µM. The value for `O=S(=O)(NCCC1CC1(Cl)Cl)c1ccc(Cl)cc1` (centres undefined) was inactive: > 30 µM; that for `CC1(C)CC(=O)C=C(Nc2ccc3c(c2)OCCO3)C1` was inactive: > 30 µM.

As to `O=C(NC(=S)Nc1cccc2c(O)cccc12)c1ccco1`, the EC50 is inactive: > 30 µM. The value for `c1cncc(-c2nc(NCc3ccc4c(c3)OCO4)c3ccccc3n2)c1` was inactive: > 30 µM; that for `CCSc1ccc2nnc(-c3cccs3)n2n1` was inactive: > 30 µM. The value for `COc1ccc2occ(C(=O)c3ccc(N)cc3)c2c1` was inactive: > 30 µM.
